Source: article PMC4260750
Where a chain is given by its changes, count along the chain named. These are yes or no findings as the source states them, for the method shown. In cells and extracts the contact can be indirect. Some results given as binding are weak or reduced against the parent protein; the word gives no strength. For part of these data: Sequences can lack the tags named with a protein.

Amino acid sequences for entries named in this document (tags omitted). Residues count along the entry.
UniProt P24587: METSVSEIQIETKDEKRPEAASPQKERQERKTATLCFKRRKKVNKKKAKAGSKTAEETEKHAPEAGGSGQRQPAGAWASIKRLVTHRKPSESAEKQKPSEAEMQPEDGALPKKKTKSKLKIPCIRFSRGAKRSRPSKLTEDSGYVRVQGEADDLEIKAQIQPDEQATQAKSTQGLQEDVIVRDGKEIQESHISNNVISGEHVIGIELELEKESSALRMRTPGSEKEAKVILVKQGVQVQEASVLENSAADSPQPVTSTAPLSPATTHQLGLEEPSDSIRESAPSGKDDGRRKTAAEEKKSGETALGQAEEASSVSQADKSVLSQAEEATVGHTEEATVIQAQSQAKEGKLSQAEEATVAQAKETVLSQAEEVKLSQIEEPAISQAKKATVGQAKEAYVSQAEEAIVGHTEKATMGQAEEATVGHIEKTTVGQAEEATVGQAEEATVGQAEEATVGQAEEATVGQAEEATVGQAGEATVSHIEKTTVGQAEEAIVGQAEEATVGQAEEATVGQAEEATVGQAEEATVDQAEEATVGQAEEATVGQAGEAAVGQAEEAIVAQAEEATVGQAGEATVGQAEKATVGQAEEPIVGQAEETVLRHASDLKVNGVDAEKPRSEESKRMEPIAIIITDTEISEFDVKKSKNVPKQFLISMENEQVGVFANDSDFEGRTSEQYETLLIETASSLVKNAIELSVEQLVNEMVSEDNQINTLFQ
UniProt P19490, residues 19-907: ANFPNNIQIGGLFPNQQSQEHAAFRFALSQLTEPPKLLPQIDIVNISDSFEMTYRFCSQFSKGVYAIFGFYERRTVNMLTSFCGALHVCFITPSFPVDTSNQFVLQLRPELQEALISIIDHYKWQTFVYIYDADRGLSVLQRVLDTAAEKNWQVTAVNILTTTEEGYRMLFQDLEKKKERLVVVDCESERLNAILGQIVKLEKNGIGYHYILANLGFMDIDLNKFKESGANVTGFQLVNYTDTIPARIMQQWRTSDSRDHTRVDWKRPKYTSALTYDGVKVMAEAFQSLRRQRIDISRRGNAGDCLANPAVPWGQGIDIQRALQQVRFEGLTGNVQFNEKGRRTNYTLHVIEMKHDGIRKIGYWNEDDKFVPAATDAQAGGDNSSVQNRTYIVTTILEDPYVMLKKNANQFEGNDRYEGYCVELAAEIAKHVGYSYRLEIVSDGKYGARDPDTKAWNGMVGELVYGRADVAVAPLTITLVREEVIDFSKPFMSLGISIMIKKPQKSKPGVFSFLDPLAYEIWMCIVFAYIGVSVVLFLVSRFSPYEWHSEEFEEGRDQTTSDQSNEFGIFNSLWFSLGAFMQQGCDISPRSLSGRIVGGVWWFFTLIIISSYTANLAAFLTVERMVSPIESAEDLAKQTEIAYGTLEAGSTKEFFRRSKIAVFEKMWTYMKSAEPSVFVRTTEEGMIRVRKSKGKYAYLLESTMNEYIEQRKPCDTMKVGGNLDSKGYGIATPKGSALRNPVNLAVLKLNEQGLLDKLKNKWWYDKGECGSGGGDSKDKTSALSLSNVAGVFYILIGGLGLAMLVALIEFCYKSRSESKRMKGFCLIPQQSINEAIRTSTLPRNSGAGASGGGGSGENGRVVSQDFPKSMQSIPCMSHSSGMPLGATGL

Key:
Assay in all cases: pull-down; GST fusion proteins on beads, phosphorylated or not by PKC in vitro, incubated 2 h with rat homogenate diluted in TBS; five washes with TBS and 0.1% Triton X-100; immunoblot; only the target purified
GST-SAP97wt = GST-SAP97wt (UniProt Q62696)
GST-ADAM10-Ct = target: T1, GST-ADAM10-Ct (UniProt O35598)
T1 sequence: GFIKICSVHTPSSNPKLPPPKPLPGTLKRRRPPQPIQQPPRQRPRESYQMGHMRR

[1] = target: T2, GST-ADAM10-Ct phosphorylated by PKC (UniProt O35598)
T2 sequence (chain, phosphorylated in vitro by PKC; S741 is the PKC phosphorylation site): T1 sequence

GST-ADAM10-S741A = target: T3, GST-ADAM10-S741A (UniProt O35598)
T3 sequence: T1 sequence with S47A

Substance | binding (GST-SAP97wt) | binding (GST-ADAM10-Ct) | binding [1] | binding (GST-ADAM10-S741A)
GluN2A (from UniProt Q00959 23-1464) (receptor) | binds | – | – | –
SAP97 (endogenous, rat brain) (from UniProt Q62696 1-911) | – | binds | binds | binds
A-kinase anchor protein 150 (AKAP150) (from UniProt P24587 1-714) | binds | – | – | –
GluA1 (from UniProt P19490 19-907) (receptor) | binds | – | – | –
